The experiment concerns the target inducible lysine decarboxylase LdcI (Escherichia coli) (UniProt P0A9H3). In words: cryo-EM structure; LdcI-LARA complex, 7.5 Å; 7.3 µM LdcI with 73 µM LARA (1:10), 15 min at room temperature, 50 mM Mes pH 6.5, 100 mM NaCl, 0.2 mM PLP, 1 mM DTT, 0.01% glutaraldehyde; D5 symmetry imposed; both purified.

Chains of the proteins cited; added tags and fusions are not shown. Lines headed by an entry give the natural chain unless they say otherwise; changes in a name come on top.
UniProt P0A9H3: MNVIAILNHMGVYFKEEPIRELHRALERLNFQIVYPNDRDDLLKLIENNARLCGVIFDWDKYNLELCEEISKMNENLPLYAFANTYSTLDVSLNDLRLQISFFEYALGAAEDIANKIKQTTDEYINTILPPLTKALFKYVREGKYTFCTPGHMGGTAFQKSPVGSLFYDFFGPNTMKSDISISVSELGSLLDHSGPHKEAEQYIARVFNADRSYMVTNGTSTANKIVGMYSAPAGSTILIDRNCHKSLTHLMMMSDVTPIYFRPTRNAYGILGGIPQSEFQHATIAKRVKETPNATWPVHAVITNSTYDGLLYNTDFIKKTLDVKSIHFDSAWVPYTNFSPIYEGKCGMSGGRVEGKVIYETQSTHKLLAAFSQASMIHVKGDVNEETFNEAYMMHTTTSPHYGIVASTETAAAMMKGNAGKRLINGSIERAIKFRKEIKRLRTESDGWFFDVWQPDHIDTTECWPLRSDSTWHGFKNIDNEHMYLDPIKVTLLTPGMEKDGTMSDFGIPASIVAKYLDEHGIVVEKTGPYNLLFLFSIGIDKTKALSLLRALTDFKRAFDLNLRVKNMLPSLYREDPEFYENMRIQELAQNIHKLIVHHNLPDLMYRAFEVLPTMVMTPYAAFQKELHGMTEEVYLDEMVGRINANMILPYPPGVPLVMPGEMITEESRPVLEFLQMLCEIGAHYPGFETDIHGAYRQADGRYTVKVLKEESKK
UniProt P31473: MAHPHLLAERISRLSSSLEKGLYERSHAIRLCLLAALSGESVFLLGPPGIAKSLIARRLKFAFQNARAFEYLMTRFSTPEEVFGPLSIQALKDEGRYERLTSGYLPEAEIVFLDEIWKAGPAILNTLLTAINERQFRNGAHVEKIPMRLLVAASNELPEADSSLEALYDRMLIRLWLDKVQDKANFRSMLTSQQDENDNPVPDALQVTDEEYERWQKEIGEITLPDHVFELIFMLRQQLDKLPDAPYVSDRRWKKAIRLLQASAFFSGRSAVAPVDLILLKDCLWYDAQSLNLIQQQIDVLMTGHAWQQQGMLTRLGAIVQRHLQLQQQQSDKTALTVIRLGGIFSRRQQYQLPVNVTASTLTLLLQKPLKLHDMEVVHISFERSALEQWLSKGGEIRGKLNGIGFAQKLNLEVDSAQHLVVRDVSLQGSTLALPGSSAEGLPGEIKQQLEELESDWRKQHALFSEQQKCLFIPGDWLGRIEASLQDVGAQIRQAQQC

Results are given in words; binding and its absence hold for the method and conditions named. Binding can be weak; no strength is given.

On to “LARA domain of RavA (LdcI associating domain of RavA) (from UniProt P31473) (domain or fragment)”, for which the binding result was “binds”.

For the origin of these results see PMC4145799.
